Reference: PubChem BioAssay AID1347076 (National Center for Advancing Translational Sciences (NCATS), 2019)
Out of some 400,000 compounds screened, about 13,000 (3.2%) were called active. The shares of active, inactive and inconclusive entries below differ from those in the screen. Calls come from the whole dose curve; as a rule, active = well fitted cell-killing curve with a large enough effect; inconclusive = small, poorly fitted or top-dose-only effect, or effect the other way; inactive = flat fitted curve, though single readings scatter. A potency beside an inconclusive call is a rough fit, not a confirmed value.

Assay: qHTS assay for MDR1-selective chemotherapeutics: Primary screen using the drug-selected MDR subline cells KB-V1; note: nearly all actives have a fitted effect of over 60% in size
Settings: KB-V1 MDR cells viability, CellTiter-Glo, 72 h; activity change, negative = cytotoxicity: at 46.1 µM (top of the series)
Outline: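 Drug-selected KB-V1 cells, grown in DMEM lacking phenol red with 10% FBS, receive compound titrations; after three days at 37 degrees C, surviving cell ATP is quantified by CellTiter-Glo luminescence and responses normalized and curve-fitted.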
% is set by controls: 0 for no effect and ±100 for the full control effect; potency is the fitted concentration of half-maximal effect.

Row | Compound | Potency | activity change, negative = cytotoxicity
1 | Cc1cccc(CNc2ncc(-c3cccc([N+](=O)[O-])c3)n2C)c1 | inconclusive: 16.4 µM [cytotoxic, partial curve] | –
2 | CCc1ccc(N(C(=O)c2ccoc2C)C(C(=O)NC2CCCC2)c2ccc(OC)cc2)cc1 (stereo not drawn) | inconclusive: 23.1 µM [cytotoxic, single point] | –
3 | CC(C)(Oc1ccc(Cl)cc1)C(=O)NCC(c1cccs1)N1CCOCC1 (stereo not drawn) | inconclusive: 9.2 µM [cytotoxic, partial curve, poor fit] | –
4 | O=C(Nc1ccc(Br)cc1)C1C2C=CC3(O2)C1C(=O)N(CCN1CCOCC1)C3C(=O)NC1CCCCC1 (stereo not drawn) | – | inactive: 19.7%
5 | Cc1sc2ncnc(N3CCN(S(=O)(=O)c4ccc(F)cc4)CC3)c2c1C | inconclusive: 14.6 µM [cytotoxic, single point] | –
6 | Cc1cc(C)cc(OCC(O)CN2CCC(CN3C(=O)c4cccc5cccc(c45)C3=O)CC2)c1 (stereo not drawn) | active: 5.8 µM | –
7 | COc1cccc(C(=O)NCc2ccco2)c1 | – | inactive: 6.75%
8 | CCNS(=O)(=O)c1ccc(CCC(=O)NCCC2=CCCCC2)cc1 | inconclusive: 18.4 µM [cytotoxic, partial curve] | –
9 | Cc1cc(N2C(=O)C3CC=CCC3C2=O)cc(C)c1Br (stereo not drawn) | – | inactive: 0.0487%
10 | N=c1c2c(n(Cc3ccc(F)cc3)c3c1CCC3)CCCC2 | – | inactive: 0%
11 | C/C(=N/NS(C)(=O)=O)c1ccc2ccccc2c1 | inconclusive: 29.1 µM [cytotoxic, single point] | –
12 | Cn1[nH]c(C(F)(F)F)cc1=O | inconclusive: 29.1 µM [rising, single point] | –
13 | CC(C)c1csc(CN2CCN(Cc3ccc(F)c(F)c3)C(CCO)C2)n1 (stereo not drawn) | inconclusive: 14.6 µM [cytotoxic, partial curve] | –
14 | COc1ccc2[nH]c3c(N4CCC(O)(c5cccc(C(F)(F)F)c5)CC4)ncnc3c2c1 | active: 18.4 µM | –
15 | CN(C(=O)COc1ccc(Cl)cc1Br)C1CCCCC1 | inconclusive: 29.1 µM [cytotoxic, single point] | –
16 | N#CCCN1CCN(S(=O)(=O)c2ccc(S(=O)(=O)NCC3CCCO3)cc2)CC1 (stereo not drawn) | inconclusive: 29.1 µM [cytotoxic, single point] | –
17 | CCCCC[C@H](C)N1C[C@H](COCc2ccccc2)Oc2cc(N3CCC[C@H]3CO)ccc2S1(=O)=O | inconclusive: 18.4 µM [cytotoxic, single point] | –
18 | C=CCN(C(=O)Cc1cccs1)c1nc(-c2ccc(S(C)(=O)=O)cc2)cs1 | inconclusive: 20.6 µM [cytotoxic, single point] | –
19 | Cc1cc(C)c(S(=O)(=O)Nc2cc(SCC(=O)O)c(O)c3ccccc23)cc1C | inconclusive: 29.1 µM [cytotoxic, single point] | –
20 | OC(CN1CCN(c2ncc(C(F)(F)F)cc2Cl)CC1)c1ccccc1 (stereo not drawn) | – | inactive: -9.87%
21 | Cc1nnc(NC(=O)CSc2nc3c([nH]c4ccccc43)c(=O)n2-c2ccc(Cl)cc2)s1 | – | inactive: 0%
22 | Cc1cc(C)cc(NC(=O)c2cc(S(=O)(=O)NCCC3=CCCCC3)ccc2F)c1 | inconclusive: 29.1 µM [cytotoxic, single point] | –
23 | O=C(C[C@H]1CC[C@@H]2[C@H](COC[C@H](O)CN2C(=O)c2cnccn2)O1)NCc1ccc(Cl)cc1 | – | inactive: -2.75%

Row | Compound | Potency | activity change, negative = cytotoxicity
24 | COc1cccc(C2CC(c3cccs3)=NN2C(=O)CCC(=O)O)c1OC (stereo not drawn) | – | inactive: 8.33%
25 | CN(CC(=O)Nc1ccccc1N1CCOCC1)S(=O)(=O)c1ccc(Cl)cc1 | inconclusive: 20.6 µM [cytotoxic, partial curve] | –
26 | Cc1ccccc1/C=N/NC(=O)c1sccc1C | inconclusive: 18.4 µM [cytotoxic, partial curve] | –
27 | O=C1N[C@@H](Cc2ccccc2)COC(=O)[C@H](Cc2ccc(F)cc2)CC/C=C/C[C@@H]1CC(=O)N(CCO)Cc1ccccc1 | inconclusive: 29.1 µM [cytotoxic, single point] | –
28 | O=C(COC(=O)CSc1ccc([N+](=O)[O-])cc1)NCCCc1ccccc1 | – | inactive: -1.5%
29 | CCOc1cccc2cc(C(=O)NC(C)c3ccccc3)c(=N)oc12 (stereo not drawn) | inconclusive: 29.1 µM [cytotoxic, single point] | –
30 | CSc1c(CC(=O)Nc2ccccc2C(F)(F)F)n(Cc2ccccc2)c2ccccc12 | inconclusive: 5.17 µM [cytotoxic, full curve] | –
31 | CCOc1ccc(NC(=O)CSc2nnc(CNC(=O)c3cccs3)o2)cc1 | inconclusive: 10.3 µM [rising, partial curve, poor fit] | –
32 | CCOC(=O)c1ccc(NC(=O)C2(c3ccc(OC)cc3)CCCC2)cc1 | inconclusive: 29.1 µM [cytotoxic, single point] | –
33 | CCOC(=O)c1ccc(Oc2nc(NC(C)(C)C)nc(N(C)C)n2)cc1 | – | inactive: -7.11%
34 | NC(c1csc(Nc2cc(Oc3ccccc3)ncn2)n1)c1ccccc1Cl (stereo not drawn) | inconclusive: 29.1 µM [cytotoxic, single point] | –
35 | COc1ccc(N2CCN(C(c3cccs3)C(C)NS(=O)(=O)c3ccccc3)CC2)cc1 (stereo not drawn) | inconclusive: 23.1 µM [cytotoxic, partial curve, poor fit] | –
36 | COc1ccc2c(c1)CC(C(=O)NCc1ccc(F)cc1)CO2 (stereo not drawn) | – | inactive: 11.1%
37 | COc1ccc(CCNCc2c(C(=O)O)c(C)n(Cc3c(F)cccc3Cl)c2C)cc1OC | inconclusive: 0.517 µM [rising, full curve, poor fit] | –
38 | Cc1ccccc1-c1csc(C(O)c2ccc(F)c(F)c2)n1 (stereo not drawn) | – | inactive: 21%
39 | O=C(Nc1nc2ccccc2[nH]1)c1ccc(Cl)cc1 | inconclusive: 16.4 µM [cytotoxic, single point] | –
40 | Cc1ccc(C(=O)N[C@H](C(=O)N2CCN(c3ccccc3F)CC2)C(C)C)cc1 | inconclusive: 0.58 µM [cytotoxic, full curve] | –
41 | CC(=O)N1CN(C2CCCC2)Cc2c1sc1c2CCCC1 | inconclusive: 7.31 µM [cytotoxic, partial curve] | –
42 | COCCN(C(=O)CSc1nc2ccccc2o1)c1c(N)n(Cc2ccccc2)c(=O)[nH]c1=O | inconclusive: 16.4 µM [rising, single point] | –
43 | C/C(=N\NC(=O)c1ccc(Cl)cc1)c1cccs1 | – | inactive: -23.9%
44 | O=[N+]([O-])c1ccc(/C=N/n2c(CO)nc3ccccc32)s1 | – | inactive: -18.2%
45 | COc1ccc(C2Nc3ccccc3C(=O)N2c2ccccc2)cc1CSc1ccccn1 (stereo not drawn) | active: 4.11 µM | –
46 | COc1ccc(-n2c(=O)cc(N3CCN(c4ccccc4OC)CC3)[nH]c2=O)cc1 | inconclusive: 18.4 µM [cytotoxic, partial curve, poor fit] | –

Part of the list above, in CSV form.
Row,Compound,Potency,"activity change, negative = cytotoxicity"
41,CC(=O)N1CN(C2CCCC2)Cc2c1sc1c2CCCC1,"inconclusive: 7.31 µM [cytotoxic, partial curve]",–
42,COCCN(C(=O)CSc1nc2ccccc2o1)c1c(N)n(Cc2ccccc2)c(=O)[nH]c1=O,"inconclusive: 16.4 µM [rising, single point]",–
43,C/C(=N\NC(=O)c1ccc(Cl)cc1)c1cccs1,–,inactive: -23.9%
44,O=[N+]([O-])c1ccc(/C=N/n2c(CO)nc3ccccc32)s1,–,inactive: -18.2%

(listing goes on)

Row | Compound | Potency | activity change, negative = cytotoxicity
47 | Cc1ccc(CN2CCSc3ccc(C(=O)N4CCN(c5ccc(Cl)cc5)CC4)cc32)cc1 | inconclusive: 29.1 µM [cytotoxic, single point] | –
48 | CN1CCc2c(OCc3ccc(F)cc3)cccc2C1=O | inconclusive: 16.4 µM [cytotoxic, single point] | –
49 | Cc1c(NC(=O)COC(=O)/C=C/c2cccc(Br)c2)c(=O)n(-c2ccccc2)n1C | inconclusive: 6.51 µM [rising, partial curve] | –
50 | CCN(CC)P(=O)(C(NC(=O)OC)C(F)(F)C(F)(F)C(F)(F)C(F)F)N(CC)CC (stereo not drawn) | inconclusive: 11.6 µM [cytotoxic, partial curve, poor fit] | –
51 | COc1cccc(CNC(=O)C(NS(=O)(=O)c2cccs2)C(C)C)c1 (stereo not drawn) | – | inactive: -2.98%
52 | COc1cc(C2Sc3ccccc3NC3=C2C(=O)OC3)cc(OC)c1OC (stereo not drawn) | – | inactive: -29.5%
53 | O=C1NC[C@@H](CCCCN2CCN(CC3CCCCC3)C(=O)C2=O)N(CCC2CCCCC2)C1=O | inconclusive: 23.1 µM [rising, partial curve, poor fit] | –
54 | C/C(=N\NC(=O)c1ccccc1)c1c(C)[nH]n(-c2ccccc2)c1=O | – | inactive: -10.1%
55 | CCOc1ccc(-n2c(SC(C)C)nc3c(c2=O)SCC3)cc1 | active: 2.91 µM | –
56 | COc1cc(C(=O)NC(=S)Nc2ccc(N3CCCC3)cc2)cc(OC)c1OC | – | inactive: -6.84%
57 | Cc1nc2cc3c(=O)n(C)cnc3cc2n1Cc1ccccc1 | – | inactive: -25.3%
58 | Cc1ccc(C(=O)NCCc2cccc(Cl)c2)cc1[N+](=O)[O-] | active: 16.4 µM | –
59 | CCOC(=O)[C@H]1[C@H]2COc3ccc(OC)cc3[C@@H]2N2C(=O)CN(Cc3ccc(OC)cc3)C(=O)[C@@]12C | inconclusive: 18.4 µM [rising, single point] | –
60 | CC(=O)Nc1c2c(nn1-c1ccc(C)cc1C)CS(=O)C2 (stereo not drawn) | inconclusive: 32.6 µM [rising, single point] | –
61 | Cc1nn(Cc2ccc(C(=O)NC(C)(C)C)o2)c(C)c1Br | inconclusive: 18.4 µM [cytotoxic, single point] | –
62 | CN1CCN(C(=O)CCN2C(=O)S/C(=C/c3ccc(Cl)cc3)C2=O)CC1 | inconclusive: 29.1 µM [cytotoxic, single point] | –
63 | O=C(Nc1cccc(NC(=O)c2cccs2)c1)c1ccc(Br)cc1 | inconclusive: 13 µM [cytotoxic, partial curve] | –
64 | O=c1c2cccnc2n(Cc2ccccc2F)c(=O)n1Cc1ccc(F)cc1 | inconclusive: 9.2 µM [cytotoxic, partial curve, poor fit] | –
65 | O=C(CSc1ncnc2nc[nH]c12)Nc1nnc(SCc2ccc(Cl)c(Cl)c2)s1 | – | inactive: 14.2%
66 | Cc1ccc(-n2c(C)cc(/C=C3\SC(=O)NC3=O)c2C)cc1 | – | inactive: -1.18%
67 | CCn1nc(C)c(NC(=O)CC23CC4CC(CC(C4)C2)C3)c1C | inconclusive: 20.6 µM [cytotoxic, single point] | –
68 | CSCCC(NC(=O)c1ccccc1Cl)C(=O)NC1CCN(Cc2ccccc2)CC1 (stereo not drawn) | inconclusive: 18.4 µM [cytotoxic, single point] | –
